Measurements as given in article PMC11994786.

By UniProt entry, the sequences of proteins in these tests, tags left out.
UniProt P69566: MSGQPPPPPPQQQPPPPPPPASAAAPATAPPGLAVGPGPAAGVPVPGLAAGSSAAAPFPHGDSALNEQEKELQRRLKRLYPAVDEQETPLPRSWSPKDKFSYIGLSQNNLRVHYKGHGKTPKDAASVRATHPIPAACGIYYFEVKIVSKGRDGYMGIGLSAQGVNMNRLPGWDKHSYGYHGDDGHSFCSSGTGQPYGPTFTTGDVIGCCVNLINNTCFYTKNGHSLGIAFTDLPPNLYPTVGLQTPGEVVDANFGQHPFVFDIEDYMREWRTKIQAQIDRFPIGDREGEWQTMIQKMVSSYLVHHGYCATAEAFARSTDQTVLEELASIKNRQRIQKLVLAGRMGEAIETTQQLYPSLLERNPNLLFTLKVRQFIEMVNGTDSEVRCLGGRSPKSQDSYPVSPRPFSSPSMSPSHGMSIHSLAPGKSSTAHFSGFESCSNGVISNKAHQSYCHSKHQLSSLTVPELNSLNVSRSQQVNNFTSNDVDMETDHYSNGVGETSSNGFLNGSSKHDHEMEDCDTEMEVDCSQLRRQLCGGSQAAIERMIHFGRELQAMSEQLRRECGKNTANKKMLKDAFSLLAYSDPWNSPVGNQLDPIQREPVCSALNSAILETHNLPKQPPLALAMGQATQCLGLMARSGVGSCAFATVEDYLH

B1: Phkb (Phosphorylase kinase regulatory subunit b) (protein, UniProt Q7TSH2 1-1085)
chain: MANSPDAAFSSPALLRSGSVYEPLKSINLPRPDNETLWDKLDHYYRIVKSTMLMYQSPTTGLFPTKTCGGEEKSKVHESLYCAAGAWALALAYRRIDDDKGRTHELEHSAIKCMRGILYCYMRQADKVQQFKQDPRPTTCLHSVFSVHTGDELLSYEEYGHLQINAVSLFLLYLVEMISSGLQIIYNTDEVSFIQNLVFCVERVYRVPDFGVWERGSKYNNGSTELHSSSVGLAKAALEAINGFNLFGNQGCSWSVIFVDLDAHNRNRQTLCSLLPRESRSHNTDAALLPCISYPAFALDDEALFSQTLDKVIRKLKGKYGFKRFLRDGYRTPLEDPNRRYYKPAEIKLFDGIECEFPIFFLYMMIDGVFRGNLEQVKEYQDLLTPLLHQTTEGYPVVPKYYYVPADFVECEKRNPGSQKRFPSNCGRDGKLFLWGQALYIIAKLLADELISPKDIDPVQRFVPLQNQRNVSMRYSNQGPLENDLVVHVALVAESQRLQVFLNTYGIQTQTPQQVEPIQIWPQQELVKAYFHLGINEKLGLSGRPDRPIGCLGTSKIYRILGKTVVCYPIIFDLSDFYMSQDVLLLIDDIKNALQFIKQYWKMHGRPLFLVLIREDNIRGSRFNPILDMLAAFKKGIIGGVKVHVDRLQTLISGAVVEQLDFLRISDTEKLPEFKSFEELEFPKHSKVKRQSSTADAPEAQHEPGITITEWKNKSTHEILQKLNDCGCLAGQTILLGILLKREGPNFITMEGTVSDHIERVYRRAGSKKLWSVVRRAASLLNKVVDSLAPSITNVLVQGKQVTLGAFGHEEEVISNPLSPRVIKNIIYYKCNTHDEREAVIQQELVIHIGWIISNSPELFSGMLKIRIGWIIHAMEYELQVRGGDKPAVDLYQLSPSEVKQLLLDILQPQQSGRCWLNRRQIDGSLNRTPPEFYDRVWQILERTPNGIVVAGKHLPQQPTLSDMTMYEMNFSLLVEDMLGNIDQPKYRQIIVELLMVVSIVLERNPELEFQDKVDLDRLVKEAFHEFQKDESRLKEIEKQDDMTSFYNTPPLGKRGTCSYLTKVVMNSLLEGEVKPSNEDSCLVS
B2: Asns (Asparagine Synthetase) (protein, UniProt Q61024 1-561)
chain: MCGIWALFGSDDCLSVQCLSAMKIAHRGPDAFRFENVNGYTNCCFGFHRLAVVDPLFGMQPIRVRKYPYLWLCYNGEIYNHKALQQRFEFEYQTNVDGEIILHLYDKGGIEKTICMLDGVFAFILLDTANKKVFLGRDTYGVRPLFKAMTEDGFLAVCSEAKGLVSLKHSTTPFLKVEPFLPGHYEVLDLKPNGKVASVEMVKYHHCTDEPLHAIYDSVEKLFPGFDLETVKNNLRILFDNAIKKRLMTDRRIGCLLSGGLDSSLVAASLLKQLKEAQVQYPLQTFAIGMEDSPDLLAARKVANYIGSEHHEVLFNSEEGIQALDEVIFSLETYDITTVRASVGMYLISKYIRKNTDSVVIFSGEGSDELTQGYIYFHKAPSPEKAEEESERLLKELYLFDVLRADRTTAAHGLELRVPFLDHRFSSYYLSLPPDMRIPKNGIEKHLLRETFEDCNLLPKEILWRPKEAFSDGITSVKNSWFKILQDYVEHQVDDEMMSAASQKFPFNTPKTKEGYFYRQIFERHYPGRADWLTHYWMPKWINATDPSARTLTHYKSAAKA
B3: Ggh (Gamma-Glutamyl Hydrolase) (protein, UniProt Q9Z0L8 25-317)
chain: RPYNHGSERPIIGVVMQECFGKMAKLGNYYIAASYVKYIESAGARVVPIRPDLSDAEYEELFRSINGVLLPGGGANLTDSGYSRVAKIFFSKALESFDNGDHFPVWGTCLGFEELSVLVSGENLLTSTDTKSKKLPLNFTEGARKSRMFKHFPTELLDSLALENLTANFHKWSLSVKNFTENEKLKKFFNILTTNTDGKTEFISSMEGFKYPVYAVQWHPEKAAFEWKNLGGISHAPNAVKTSFYLAEFLVSEARKNSHHFENVVKETASLIYKFNPIYTGNISSFQQAYMFD
B4: Akr1e1 (Aldo-Keto Reductase Family 1 Member E) (protein, UniProt Q8CEB6 1-245)
chain: MENIPTVGLGTWKLWCTCHKKSLVKTACTNTLEALNLDYLDLYLIHWPMGFKPGEKDIPLDRNGKVIPSHTSFLDTWEAMEDLVFEGLVKNLGVSNFNHEQLERLLDKPGLRVRPITNQIECHPYLNQKKLIDFCHKRNVSVTAYRPLGGSGGGFHLMDDTVIRKIAKKHGKSPAQILIRFQIQRNLIVIPKSVTPSRIRENIQVFDFELTEKDMEELLSLDKNLRLATFPTTENHQDYPFHIEY

The binders below were run against RanBP9-V5 (Ran Binding Protein 9 with a V5 tag at the C-terminus) (mouse) (UniProt P69566) (assay: affinity purification with mass spectrometry; anti-V5 magnetic beads on 1 mg pre-cleared whole lung lysate of LysMBP9X mice, overnight at 4 °C, on-bead trypsin digestion, LC-MS/MS; hits significant (p ≤ 0.05) against V5-IP from WT mice and Ig-IPs).

binding	Binder
binds	B1
binds	B2
binds	B3
binds	B4

No constants are given. Whether binding was seen depends on the method and setting. Binding seen in cells or lysates may run through a third protein. A yes stands for co-enrichment or nearness to the bait. Other partners may have been found.
